From publication PMC9788671
These are yes or no findings as the source states them, for the method shown. Binding seen in cells or lysates may run through a third protein. A yes stands for co-enrichment or nearness to the bait. Other partners may have been found.

Sequences of proteins named here, by UniProt entry; tags and fusion partners are left off.
UniProt Q9NZV8: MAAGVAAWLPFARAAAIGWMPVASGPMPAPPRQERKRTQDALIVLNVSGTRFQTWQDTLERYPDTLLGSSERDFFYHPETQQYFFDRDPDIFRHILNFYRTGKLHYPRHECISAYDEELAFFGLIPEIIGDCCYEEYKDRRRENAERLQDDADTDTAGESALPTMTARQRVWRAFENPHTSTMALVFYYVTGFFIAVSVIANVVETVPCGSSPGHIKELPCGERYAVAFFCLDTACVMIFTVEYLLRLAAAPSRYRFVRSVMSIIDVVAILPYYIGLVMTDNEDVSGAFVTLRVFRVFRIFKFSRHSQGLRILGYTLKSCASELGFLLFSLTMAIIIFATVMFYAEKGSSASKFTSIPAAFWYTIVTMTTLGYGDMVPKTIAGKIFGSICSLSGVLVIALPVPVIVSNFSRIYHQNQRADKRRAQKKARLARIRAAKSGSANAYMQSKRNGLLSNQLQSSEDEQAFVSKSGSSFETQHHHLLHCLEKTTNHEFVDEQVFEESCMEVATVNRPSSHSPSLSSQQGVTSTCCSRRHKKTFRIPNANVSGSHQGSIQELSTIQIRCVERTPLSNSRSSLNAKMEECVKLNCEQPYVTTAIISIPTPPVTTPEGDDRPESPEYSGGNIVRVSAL

B1: Flii (protein, UniProt Q5RKI5 1-1270)
chain: MEATGVLPFVRGVDLSGNDFKGGYFPENVKAMTSLRWLKLNRTGLCYLPEELAALQKLEHLSVSHNNLTTLHGELSSLPSLRAIVARANSLKNSGVPDDIFKLDDLSVLDLSHNQLTECPRELENAKNMLVLNLSHNSIDSIPNQLFINLTDLLYLDLSENRLESLPPQMRRLVHLQTLVLNGNPLLHAQLRQLPAMMALQTLHLRNTQRTQSNLPTSLEGLSNLSDVDLSCNDLTRVPECLYTLPNLHRLNLSSNQIAELSLCIDQWVHLETLNLSRNQLTSLPSAICKLTKLKKLYLNSNKLDFDGLPSGIGKLTSLEEFMAANNNLELIPESLCRCPKLRKLVLNKNRLVTLPEAIHFLTEIEVLDVRENPSLVMPPKPADHTAEWYNIDFSLQNQLRLAGASPATVAAAAAVGSGSKDPLARKMRLRRRKDSAQDVQAKQVLKGMSDVAQEKNKNQEESTDARAPGGKVRRWDQGLEKPRLDYSEFFTEDVGQLPGLTIWQIENFVPVLVEEAFHGKFYEADCYIVLKTFLDDSGSLNWEIYYWIGGEATLDKKACSAIHAVNLRNYLGAECRTAREEMGDESEGFLQVFDNDISYIEGGTASGFYTVEDTHYVTRMYRVYGKKNIKLEPVPLKGTSLDPRFVFLLDQGLDIYVWRGAQATLSNTTKARLFAEKMNKNERKGKAEITLLVQGQEPPEFWDVLGGEPSEIKKHVPDDFWPPQPKLYKVGLGLGYLELPQINYKLSVEHKKRPKVELMPGMRLLQSLLDTRCVYILDCWSDVFIWLGRKSPRLVRAAALKLGQELCGMLHRPRHTVVSRSLEGTEAQVFKAKFKNWDDVLTVDYTRNAEAVLQGPGISGKVKRDTEKKDQMKADLTALFLPRQPPMPLAEAEQLMEEWNEDLDGMEGFVLEGRKFTRLAEEEFGHFYTQDCYVFLCRYWVPVEYEEEEKPEDKEGKASAEGREEEEAAAETEEKQPEEDFQCIVYFWQGREASNMGWLTFTFSLQKKFESLFPGKLEVVRMTQQQENPKFLSHFKRKFIIHRGKRKVTQTLQPTLYQIRTNGSALCTRCIQINTDSSLLNSEFCFILKVPFESEDNQGIVYAWVGRASDPDEAKLAEDILNTMFDPSYSKQVINEGEEPENFFWVGIGAQKPYDDDAEYMKHTRLFRCSNEKGYFAVTEKCSDFCQDDLADDDIMLLDNGQEVYMWVGTQTSQVEIKLSLKACQVYIQHTRSKEHERPRRLRLVRKGNEQRAFTRCFHAWSTFRQAPA
B2: Farp1 (protein, UniProt F1LYQ8 1-1049)
chain: MGEIEQKPTPASRLGAPENSGISTLERGQKPPPTPSGKLMTVKIQMLDDTQEAFEVPQRAPGKVLFDAVCNHLNLVEGDYFGLEFPDHRKIVVWLDLLKPIVKQIRRPKHVLVKFVVKFFPPDHTQLQEELTRYLFALQVKQDLAQGRLTCNDTSAALLISHIVQSEIGDFDEALDREHLAKNKYVPQQDALEDKIVEFHHSHIGQTPAESDFQLLEVARRLEMYGIRLHPAKDREGTKINLAVANTGILVFQGFTKINAFNWAKVRKLSFKRKRFLIKLRPDVNSSYQDTLEFLMAGRDFCKSFWKICVEHHAFFRLFEEPKPKPKPVLFSRGSSFRFSGRTQKQVLDYVKEGGHKKVQFERKHSKIHSTRSLVSQPTAPNSEVPKQSPQSASLTFGEGTESPSAQSCQQAKETKVCTLEPGPRQSPALSKSPSGSKAADGTAAAAPPEEEDEEEGGKDGIRPSNPQPPQPSTGSLTGSPHLSELSINSQGGAAPANVTLSPNLSPDNKQASPLISPLLNDQACPRTDDEEEGRRKRFPTDKAYYIAKEVSTTERTYLKDLEVIASWFQSTVSKEDSMPEALKSLIFPNFEPLHKFHTNFLKEIEQRLALWEGRSNAHIRGDYQRIGDVMLKNIQGMKHLAAHLWKHSEALEALETSIKGSRRLEHFCRDFELQKVCYLPLNTFLLRPLHRLMHYKQVLERLCKHHPPNHADFRDCRAALAEITEMVAQLHGTMIKMENFQKLHELKKDLIGIDNLVIPGREFIRLGSLSKLSGKGLQQRMFFLFNDVLLYTSRGLTASNQFKVHGQLPLYGMTIEESEEEWGVPHCLTLRGQRQSIIVAASSRSEMEKWLEDIQMAIDLAEKSNGPTPELLASSPPDNKSPDEATAADQESEDDLSASRTSLERQAPHRGNTMVHVCWHRSTSVSMVDFSIAVENQLSGNLLRKFKNSNGWQKLWVVFTNFCLFFYKSHQDSHPLASLPLLGYSLTIPSESENIHKDYVFKLHFKSHVYYFRAESEYTFERWMEVIRSATSSASRAHSLSHKESHLY
B3: Mrps15 (protein, UniProt Q5XI37 58-257)
chain: VQAKQDDEPASSTFIKEYKNIIPNMEKVDDVVKRILSLEMASRKEKLKIKREQLMNKIAENPEDYRTLEARIVALTVKIRNYEEHMQKHRKDKVHKRHLLMSIDQRKKFLRLLRQTNYDVFEKTCKELGVEYALPPLHFQRVHRRFLAKKALCIQVFQEVQKLKKQRMALKAAAAAAKKEKRERVPENPSNALPEKTKEN
B4: Atp5f1 (protein, UniProt P19511 43-256)
chain: PLPPLPEYGGKVRLGLIPEEFFQFLYPKTGVTGPYVLGTGLSLYFLSKEIYVITPETFSTISVVGLIVYVIKKYGASIGEFIDKLNEEKIAQLEEIKQSSMKQIQDAINREKAQQALVQKRHYLFDVQRNNIALALEVTYRERLHKAYKEVKNRLDYHISVQDMMRRKEGEHMINWVEKHVIQSISAQQEKETIAKCIGDLKMLAKKAQAQPIM
B5: Ikbkap (protein, UniProt Q8VHU4 1-1331)
chain: MRNLKLHQTLEFRDIQAPGKPQCFCLRAEQGTVLIGSERGLTEVDPVKKEVKTEISLVAEGFLPEDGSGCIVGIQDLLDQESVCVATASGDVIVCNVSTQQLECVGNVASGISVMSWSPDQELLLLATAQQTLIMMTRDYEVITEQQIHQDDFGEGKFITVGWGSKDTQFHGSEGRPITFPVQMHESALSWDDHRPQITWRGDGQFFAVSVVCSQTGARKIRVWNREFALQSTSESVPGLGPSLAWKPSGSLIASTQDKPNQQDVVFFEKNGLLHGYFTLPFLKDEVKVNDLLWNADSSVLAVWLEDLPKEGSSTLKSYVQLWTVGNYHWYLKQSLPFSTTGKNQIVSLLWDPVTPGRLHVLCQGWRYLCCDWHWTTDRSSGNSADDLANVAVIDGNKVLVTVFQRTVTPPPMCTYRLLIPHPVNQVMSSAHLGNDLAVLDASNQISVYKCDDKPDMDSTVKLGAVGGTGFKVPLRTPHLEKRYRIQFGNKEEEEDVSPLQFRFLTWIEGDAFLAISHSHSSPQSIIHHLTMAGSEGDEEQGQLNVSSSVTVDGVVIGLCCCSKTKSSAVQLADGQVLKYLWESPSSAVEPWKNSEGRPVRFARPCTQMEAAAIGGEECVLGLTDRCRFFINDTEVASNITSFAVCDDFLLVTTHSHTCQCFSLSGASLKMLQAGLCGSQVPSGEILRKVERGSRIVTVVPQDTKLILQMPRGNLEVVHHRALVLAQIRKWLDKLMFKEAFECMRKLRINLNLIHDHNPKVFLENVETFIKQIDSVNHLNLFFTELKEEDVTKTMYPPPVTKSVQVSTNPDGKKVDLICDAMRVAMETINPRKFCLSILTSHVKKTTPELDIVLQKVHELQGKIPFVPESVSAEEALKYLLLLVDVNELFNHSLGTYDFDLVLMVAEKSQKDPKEYLPFLNTLKKMETNYQRFTIDKYLKRYEKALGHLSKCGPEYFTECLNLIKDKNLYKEALKLYRPDSPQYQAVSVAYGEHLVQELLYEPAGLVFARCGAHEKALEAFLACGSWQQALCMAAQLQMAKDKVAGLARTLAGKLVEQRKHSEAATVLEQYALDYEEAVLLLLEGSAWEEALRLVYKYDRVDIIETSVKPSILEAQKNYMDFLDSQTATFIRHKNRLKVVRELKSQRPRVHVDHEVAHGRETDLFSETSSIRSGSEMSGRYSHSNSRISARSSKNRRKAERKKHSLKEGSPLEGLALLEALSEVVQSIEKLKDEVHAILKVLFLFEFEEQARELQRAFESTLQLMGTALPDIWTLTGQQSSSTPVLGPSSTVNSIMASYQQQKTCVPVLDAWACLPPKIDQRSQWKLSLLE
B6: Sfxn3 (protein, UniProt Q9JHY2 1-321)
chain: MGDLPLNINIQEPRWDQSTFLGRARHFFTVTDPRNLLLSGKQLEASRNIVQNYRAGVVTPGLTEDQLWRAKYVYDSAFHPDTGEKVVLIGRMSAQVPMNMTITGCMLTFYRKTPTMVFWQWVNQSFNAIVNYSNRSGDAPITVQQLGTAYVSATTGAVATALGLKSLTKHLPPLVGRFVPFAAVAAANCINIPLMRQRELQVGIPVTDEAGQRLGHSVTAAKQGIFQVVVSRIGMAIPAMAIPPVIMNTLEKKDFLKRRPWLGAPLQVGLVGFCLVFATPLCCALFPQRSSIHVTRLEPELRAQIQAQKPSIDVVYYNKGL
B7: Dlgap4 (protein, UniProt P97839 1-992)
chain: MKGLGDSRPRHLSDSLDPPHEPLFAGPDRNPYLLSPTEAFAREARFPGQNTLPGDGLFPLNNQLPPPSSTFPRIHYNSHFEVPEESPFPSHAQATKINRLPANLLDQFEKQLPIHRDGFSTLQFPRGEAKARGESPGRIRHLVHSVQRLFFTKAPSMEGTTGKVGGNGGKKGVLEDGKGRRAKSKERAKAGEPKRRSRSNISGWWSSDDNLDGEGGAFRSGPASGLMTLGRQPERTQPRYFMHAYNTISGHMLKTTKNTTTELTAPPPPPAPPATCPSLGVGTDTNYVKRGSWSTLTLSHAHEVCQKTSATLDKSLLKSKSCHQGLAYHYLQVPGGGGEWSTTLLSPRDMDSTAEGPIPCRRMRSGSYIKAMGDEDSDESGGGSPKPSPKTAARRQSYLRATQQSLGEQSNPRRSLDRLDSVDMPLPSKYPSWEEDYNPISDSLNDSGCISQVFGQASLIPQLFGHDQQVREADLSDQYEAACESACSEAESTAAEALDLSLPSYFRSRSHSYLRAIQAGCSQEEDSVSLQSLSPPPSTGSLSNSRTLPSSSCLVAYKKTPPPVPPRTTSKPFISVTVQSSTESAQDTYLDSQDHKSEVTSQSGLSNSSDSLDSSTRPPSVTRGGITPGPEAPEPPPKHAALKSEHGTLTSSESHSEAVPKRKLSSIGIQVDCIQPVPKEEPSPATKFQSIGVQVEDDWRSSAPSHSMSSRRDTDSDTQDANDSSCKSSERSLPDCTSHPNSISIDAGPRQAPKIAQIKRNLSYGDNSDPALEASSLPPPDPWMETSSSSPAEPAQPGACRRDGYWFLKLLQAETERLEGWCCQMDKETKENNLSEEVLGKVLSAVGSAQLLMSQKFQQFRGICEQNLNPDANPRPTAQDLAGFWDLLQLSIEDISMKFDELYHLKANSWQLVETPEKRKEEKKPPPPVPKKPAKSKAAVSRDKASDAGDKQRQEARKRLLAAKRAASVRQNSATESADSIEIYVPEAQTRL
B8: Tecr (protein, UniProt Q64232 1-308)
chain: MKHYEVEIRDAKTREKLCFLDKVEPQATISEIKTLFTKTHPQWYPARQSLRLDPKGKSLKDEDVLQKLPVGTTATLYFRDLGAQISWVTVFLTEYAGPLFIYLLFYFRVPFIYGRKYDFTSSRHTVVHLACMCHSFHYIKRLLETLFVHRFSHGTMPLRNIFKNCTYYWGFAAWMAYYINHPLYTPPTYGVQQVKLALAIFVICQLGNFSIHMALRDLRPAGSKTRKIPYPTKNPFTWLFLLVSCPNYTYEVGSWIGFAIMTQCVPVALFSLVGFTQMTIWAKGKHRSYLKEFRDYPPLRMPIIPFLL
B9: Tfam (protein, UniProt Q91ZW1 43-244)
chain: SSLGNYPKKPMSSYLRFSTEQLPKFKAKHPDAKVSELIRKIAAMWRELPEAEKKVYEADFKAEWKVYKEAVSKYKEQLTPSQLMGLEKEARQKRLKKKAQIKRRELILLGKPKRPRSAYNIYVSESFQEAKDESAQGKLKLVNQAWKNLSHDEKQAYIQLAKDDRIRYDNEMKSWEEQMAEVGRSDLIRRSVKRPPGDISEN

The binders below were run against TAP-Kv4.2 (human) (UniProt Q9NZV8) (assay: affinity purification with mass spectrometry; TAP-Kv4.2 expressed by lentivirus in rat hippocampal neurons, harvested at DIV14; strong lysis buffer (1% Triton X-100, 0.5% deoxycholate in PBS, pH 7.4); streptavidin resin, then calmodulin resin; gel cut into high and low molecular weight fragments; no MS of the control sample).

binding	Binder
binds	B1
binds	B2
binds	B3
binds	B4
binds	B5
binds	B6
binds	B7
binds	B8
binds	B9
